# Laboratory results from paper doi:10.1101/2023.07.25.550451.
# Results are given in words; binding and its absence hold for the method and conditions named. Binding calls can cover weak binding; strength is not graded here. Where a sequence is shown, tags or fusion partners need not be part of it.
# Molecular target: T1, GST-FAM104B isoform 3 (human) (UniProt Q5XKR9)
# T1 sequence: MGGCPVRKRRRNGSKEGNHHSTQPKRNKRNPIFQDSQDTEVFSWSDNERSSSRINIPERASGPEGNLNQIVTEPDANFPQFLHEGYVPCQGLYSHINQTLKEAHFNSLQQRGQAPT
# Experiment: pull-down
substance,measurement,value
p97 N domain (human) (domain or fragment),binding,binds
